In the supplement of paper PMC9233669:
Variants at the floor of the assay are shown more often than the library holds them.

What was measured:
[1] = test system: biotinyl-Phe-oxazolone; test: self-aminoacylation, catalytic enhancement (BFO) (fold over background); higher = more active; k-Seq, kA / k0A0; sequences stand for … in GGGAAUGGAUCCACAUCUACGAAUUC…UUCACUGCAGACUUGACGAAGCUG
Outline: (§1)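 Catalytic enhancement equals the median kA over the uncatalyzed rate, the latter read from the low-activity peak of a bimodal Gaussian fit. Values of kA came from fitting each sequence's fraction reacted to a pseudo-first-order model, with 1000 bootstraps. Reacted RNA was captured with streptavidin and quantified by triplicate qPCR and Illumina sequencing after 90 minutes at room temperature with 2–1250 μM biotinyl-aminoacyl-oxazolone and 0.43 μM mutagenized RNA pools bearing a 21-nt variable region.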

[2] = test system: biotinyl-Ile-oxazolone; test: self-aminoacylation, catalytic enhancement (BIO) (fold over background); higher = more active; k-Seq, kA / k0A0; sequences stand for … in GGGAAUGGAUCCACAUCUACGAAUUC…UUCACUGCAGACUUGACGAAGCUG
Outline: as §1

[3] = test system: biotinyl-Leu-oxazolone; test: self-aminoacylation, catalytic enhancement (BLO) (fold over background); higher = more active; k-Seq, kA / k0A0; sequences stand for … in GGGAAUGGAUCCACAUCUACGAAUUC…UUCACUGCAGACUUGACGAAGCUG
Outline: as §1

[4] = test system: biotinyl-Met-oxazolone; test: self-aminoacylation, catalytic enhancement (BMO) (fold over background); higher = more active; k-Seq, kA / k0A0; sequences stand for … in GGGAAUGGAUCCACAUCUACGAAUUC…UUCACUGCAGACUUGACGAAGCUG
Outline: as §1

[5] = test system: biotinyl-Val-oxazolone; test: self-aminoacylation, catalytic enhancement (BVO) (fold over background); higher = more active; k-Seq, kA / k0A0; sequences stand for … in GGGAAUGGAUCCACAUCUACGAAUUC…UUCACUGCAGACUUGACGAAGCUG
Outline: as §1

[6] = test system: biotinyl-Trp-oxazolone; test: self-aminoacylation, catalytic enhancement (BWO) (fold over background); higher = more active; k-Seq, kA / k0A0; sequences stand for … in GGGAAUGGAUCCACAUCUACGAAUUC…UUCACUGCAGACUUGACGAAGCUG
Outline: as §1

Sequence	self-aminoacylation [1]	self-aminoacylation [2]	self-aminoacylation [3]	self-aminoacylation [4]	self-aminoacylation [5]	self-aminoacylation [6]
CUACUUCAAAGAAACGGUCUG [Fam1A.1 aminoacylation ribozyme variant]	0.822	0.749	0.692	0.814	0.877	0.727
CUACUUCAAAGAAUCGCUCUG [Fam1A.1 aminoacylation ribozyme variant]	0.672	0.715	0.857	0.756	0.72	0.978
CUACUUCAAAGAAUCGGUAUG [Fam1A.1 aminoacylation ribozyme variant]	1.93	0.793	0.923	0.68	0.753	1.28
CUACUUCAAAGAAUCGGUCGG [Fam1A.1 aminoacylation ribozyme variant]	1.37	0.763	1.05	0.844	0.795	1.12
CUACUUCAACCAAUCGGCCUG [Fam1A.1 aminoacylation ribozyme variant]	47.8	1.79	2.86	1.83	1.86	42.2
CUACUUCAACCAAUGGGUCUG [Fam1A.1 aminoacylation ribozyme variant]	1.05	1.02	0.968	0.933	1.02	0.67
CUACUUCAAGCAAUCGAUCUG [Fam1A.1 aminoacylation ribozyme variant]	1.36	0.648	0.713	0.604	0.671	0.717
CUACUUCAAGCAAUCGUUCUG [Fam1A.1 aminoacylation ribozyme variant]	0.921	0.77	0.691	0.701	0.768	0.797
CUACUUCAAGCAAUUGGUCUG [Fam1A.1 aminoacylation ribozyme variant]	1.61	1.03	1.06	0.824	0.974	1.24
CUACUUCAAUCAAUAGGUCUG [Fam1A.1 aminoacylation ribozyme variant]	0.9	0.764	0.619	0.664	0.813	0.582
CUACUUCAAUCAAUUGGUCUG [Fam1A.1 aminoacylation ribozyme variant]	0.84	0.821	0.625	0.664	0.744	0.748
CUACUUCACACAAUCGGUAUG [Fam1A.1 aminoacylation ribozyme variant]	0.763	0.821	0.669	0.852	0.716	0.649
CUACUUCACACAAUCGGUCAG [Fam1A.1 aminoacylation ribozyme variant]	0.853	0.886	0.761	0.611	0.843	0.663
CUACUUCACACAAUCGGUUUG [Fam1A.1 aminoacylation ribozyme variant]	0.655	0.814	0.655	0.708	0.858	0.717
CUACUUCACAUAAUCGGUCUG [Fam1A.1 aminoacylation ribozyme variant]	0.899	0.963	0.812	0.795	0.969	0.721
CUACUUCACCCAAUCGGUCUG [Fam1A.1 aminoacylation ribozyme variant]	0.575	0.917	0.704	0.67	0.88	0.793
CUACUUCAGACAAUCGGUCGG [Fam1A.1 aminoacylation ribozyme variant]	1.04	1.2	1.6	1.41	1	1.58
CUACUUCAGACAAUCGGUCUA [Fam1A.1 aminoacylation ribozyme variant]	0.848	0.84	0.814	0.685	0.708	0.597
CUACUUCAUACAAUAGGUCUG [Fam1A.1 aminoacylation ribozyme variant]	0.866	0.836	0.723	0.695	0.904	0.434
CUACUUCAUACAAUCGGUCGG [Fam1A.1 aminoacylation ribozyme variant]	0.968	1.03	1.03	1.04	1.01	0.701
CUACUUCAUACAAUCUGUCUG [Fam1A.1 aminoacylation ribozyme variant]	0.66	0.668	0.566	0.64	0.682	0.424

Sequence	self-aminoacylation [1]	self-aminoacylation [2]	self-aminoacylation [3]	self-aminoacylation [4]	self-aminoacylation [5]	self-aminoacylation [6]
CUACUUCAUACACUCGGUCUG [Fam1A.1 aminoacylation ribozyme variant]	0.757	1.04	0.639	0.74	0.891	0.629
CUACUUCAUACAUUCGGUCUG [Fam1A.1 aminoacylation ribozyme variant]	1.05	0.955	1.04	0.894	0.965	0.96
CUACUUCAUACUAUCGGUCUG [Fam1A.1 aminoacylation ribozyme variant]	1.05	0.862	0.791	0.741	0.937	0.667
CUACUUCCAACAAUCGGUCAG [Fam1A.1 aminoacylation ribozyme variant]	1.04	0.795	0.663	0.62	0.774	0.518
CUACUUCCAACAAUCGUUCUG [Fam1A.1 aminoacylation ribozyme variant]	0.778	0.566	0.47	0.547	0.705	0.36
CUACUUCCCACAAUCGGUCUG [Fam1A.1 aminoacylation ribozyme variant]	0.493	0.867	0.992	0.846	0.888	1.04
CUACUUCCGACAAUCGGUCUG [Fam1A.1 aminoacylation ribozyme variant]	1.7	0.846	0.805	1.06	1.13	0.568
CUACUUCGAACAACCGGUCUG [Fam1A.1 aminoacylation ribozyme variant]	0.394	0.822	0.836	0.734	1.21	0.949
CUACUUCGAACAAUGGGUCUG [Fam1A.1 aminoacylation ribozyme variant]	0.322	0.778	0.674	0.624	0.759	0.39
CUACUUCGAACAAUUGGUCUG [Fam1A.1 aminoacylation ribozyme variant]	0.291	0.599	0.566	0.744	0.617	0.27
CUACUUCUAACAACCGGUCUG [Fam1A.1 aminoacylation ribozyme variant]	0.761	0.776	0.703	0.802	0.812	0.625
CUACUUCUAACACUCGGUCUG [Fam1A.1 aminoacylation ribozyme variant]	0.73	0.762	0.835	0.765	0.855	0.499
CUACUUUAAACAAUCGCUCUG [Fam1A.1 aminoacylation ribozyme variant]	0.46	0.628	0.457	0.611	0.668	0.441
CUACUUUAAACAAUCGGUCCG [Fam1A.1 aminoacylation ribozyme variant]	0.755	0.878	0.861	1.04	0.936	1.46
CUACUUUAAACAAUUGGUCUG [Fam1A.1 aminoacylation ribozyme variant]	0.795	0.984	0.919	0.961	0.963	0.926
CUACUUUAAACACUCGGUCUG [Fam1A.1 aminoacylation ribozyme variant]	0.579	0.904	0.792	0.933	0.776	0.531
CUACUUUAAACAUUCGGUCUG [Fam1A.1 aminoacylation ribozyme variant]	0.818	1.11	1.07	1.09	1.15	1.09
CUAGUUCAAGCAAUCGGUCUG [Fam1A.1 aminoacylation ribozyme variant]	1.66	1.04	1.11	0.933	0.854	1.45
CUAGUUCCAACAAUCGGUCUG [Fam1A.1 aminoacylation ribozyme variant]	9.79	1.06	1.25	0.877	1.08	9.72
CUAUUUCAAACAAUCGCUCUG [Fam1A.1 aminoacylation ribozyme variant]	0.863	0.726	0.609	0.638	0.733	0.592
CUCCUUCAAACAAACGGUCUG [Fam1A.1 aminoacylation ribozyme variant]	0.716	0.778	0.599	0.666	0.706	1.26
